Test results as given in PMC8027267.
No constants are given. Whether binding was seen depends on the method and setting. Binding seen in cells or lysates may run through a third protein. Some binding calls cover weakened binding; strength is not graded here.

Amino acid sequences for entries named in this document (tags omitted).
UniProt P35222: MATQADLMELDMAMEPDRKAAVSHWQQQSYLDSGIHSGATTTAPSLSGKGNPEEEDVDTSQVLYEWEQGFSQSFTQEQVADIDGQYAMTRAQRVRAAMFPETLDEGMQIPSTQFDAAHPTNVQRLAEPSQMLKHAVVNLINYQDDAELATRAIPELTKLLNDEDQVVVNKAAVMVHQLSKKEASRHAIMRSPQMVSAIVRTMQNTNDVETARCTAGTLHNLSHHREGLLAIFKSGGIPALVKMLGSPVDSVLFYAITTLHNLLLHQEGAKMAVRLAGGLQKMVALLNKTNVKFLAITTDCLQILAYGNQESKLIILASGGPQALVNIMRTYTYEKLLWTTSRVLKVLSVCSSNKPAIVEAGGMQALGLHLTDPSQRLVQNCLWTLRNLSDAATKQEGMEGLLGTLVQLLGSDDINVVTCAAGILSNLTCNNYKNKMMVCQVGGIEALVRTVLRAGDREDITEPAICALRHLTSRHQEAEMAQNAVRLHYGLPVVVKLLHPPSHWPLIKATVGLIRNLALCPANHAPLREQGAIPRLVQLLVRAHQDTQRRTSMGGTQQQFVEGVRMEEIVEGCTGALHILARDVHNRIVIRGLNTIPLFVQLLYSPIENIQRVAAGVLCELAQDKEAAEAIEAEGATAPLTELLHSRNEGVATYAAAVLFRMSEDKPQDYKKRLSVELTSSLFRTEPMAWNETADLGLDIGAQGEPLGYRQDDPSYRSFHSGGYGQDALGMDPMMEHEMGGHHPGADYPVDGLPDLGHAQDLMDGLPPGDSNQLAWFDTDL
UniProt Q96RD7: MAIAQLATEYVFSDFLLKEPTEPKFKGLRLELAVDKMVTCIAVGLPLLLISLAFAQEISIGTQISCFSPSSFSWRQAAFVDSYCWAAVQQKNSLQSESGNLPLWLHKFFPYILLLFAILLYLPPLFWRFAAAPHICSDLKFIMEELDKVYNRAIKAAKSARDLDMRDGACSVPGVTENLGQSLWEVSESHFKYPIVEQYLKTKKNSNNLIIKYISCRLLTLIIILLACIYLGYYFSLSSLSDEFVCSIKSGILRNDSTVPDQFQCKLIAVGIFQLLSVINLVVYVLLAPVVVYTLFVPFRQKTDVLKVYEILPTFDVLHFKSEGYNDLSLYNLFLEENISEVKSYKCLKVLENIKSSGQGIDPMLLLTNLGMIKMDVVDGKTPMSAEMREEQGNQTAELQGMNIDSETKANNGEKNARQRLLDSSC

Legend:
[1] = molecular target: β-catenin, endogenous in 131/4-5B1 human melanoma cells (human (endogenous in 131/4-5B1)) (UniProt P35222); experiment: co-IP; 1 mg lysate of 131/4-5B1 cells (50 mM Tris-HCl pH 7.4, 150 mM NaCl, 1% Triton X-100); IP with anti-PANX1 polyclonal or anti-β-catenin monoclonal antibody and protein A-Sepharose overnight at 4 °C; blots for PANX1 and β-catenin; rabbit or mouse IgG as controls
[2] = molecular target: Pannexin 1 (PANX1), endogenous in human melanoma cells (human (endogenous in 131/4-5B1, A375-P and A375-MA2)) (UniProt Q96RD7); experiment: as above

| binding [1] | binding [2] | Substance |
| --- | --- | --- |
| binds |  | Pannexin 1 (PANX1), endogenous in human melanoma cells (from UniProt Q96RD7 1-426) |
|  | binds | β-catenin, endogenous in 131/4-5B1 human melanoma cells (from UniProt P35222 1-781) |
